Reference: article PMC6331586, “Rapid determination of quaternary protein structures in complex biological samples” (Nature Communications, 2019)
Results are given in words; binding and its absence hold for the method and conditions named. In cells and extracts the contact can be indirect. Some binding calls cover weakened binding; strength is not graded here.

By UniProt entry, the sequences of proteins in these tests, tags left out. Residues count along the entry.
UniProt P04003, residues 49-597: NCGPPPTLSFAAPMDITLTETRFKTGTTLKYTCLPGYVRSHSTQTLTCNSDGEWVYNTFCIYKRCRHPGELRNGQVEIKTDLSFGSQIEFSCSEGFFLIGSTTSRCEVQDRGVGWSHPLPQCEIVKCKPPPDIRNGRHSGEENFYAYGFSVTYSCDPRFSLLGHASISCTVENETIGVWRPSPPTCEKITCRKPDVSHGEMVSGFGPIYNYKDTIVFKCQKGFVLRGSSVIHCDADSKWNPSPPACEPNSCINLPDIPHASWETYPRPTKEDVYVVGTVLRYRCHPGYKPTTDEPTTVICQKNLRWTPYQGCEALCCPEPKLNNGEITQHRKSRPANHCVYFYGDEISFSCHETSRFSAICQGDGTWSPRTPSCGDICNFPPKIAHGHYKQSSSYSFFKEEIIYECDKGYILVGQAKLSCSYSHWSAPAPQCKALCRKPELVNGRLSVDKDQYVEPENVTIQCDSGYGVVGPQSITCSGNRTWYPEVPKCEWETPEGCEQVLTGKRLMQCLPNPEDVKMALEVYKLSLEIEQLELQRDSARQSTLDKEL

Molecular target: T1, M1 protein (amino acids 42–484), recombinant (S. pyogenes) (UniProt Q99XV0)
T1 sequence: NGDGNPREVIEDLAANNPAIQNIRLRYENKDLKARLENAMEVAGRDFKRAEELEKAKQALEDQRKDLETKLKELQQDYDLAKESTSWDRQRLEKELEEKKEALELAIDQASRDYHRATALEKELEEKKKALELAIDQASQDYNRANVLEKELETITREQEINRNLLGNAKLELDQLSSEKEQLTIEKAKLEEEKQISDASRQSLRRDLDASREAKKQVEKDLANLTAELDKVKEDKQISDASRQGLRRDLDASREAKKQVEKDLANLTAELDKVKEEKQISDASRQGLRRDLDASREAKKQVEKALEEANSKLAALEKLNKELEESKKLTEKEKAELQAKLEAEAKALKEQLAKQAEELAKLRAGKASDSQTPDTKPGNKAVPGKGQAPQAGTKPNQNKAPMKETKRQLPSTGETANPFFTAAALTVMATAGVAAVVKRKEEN
Test: cross-linking; additional TX-MS experiment with commercial C4BP; details in Supplementary Note 8 (not shown)

C4b-binding protein (from UniProt P04003 49-597)
binding: binds
